This assay deals with human LAP/TGF-β1 (membrane-bound latent TGF-β1) on hASCs (human) (UniProt P01137). In words: summary of flow cytometry co-staining and GARP shRNA silencing experiments on hASCs.

Sequences of proteins named here, by UniProt entry; tags and fusion partners are left off. A change or cut given only in a name is not applied to a line headed by its entry. Residues count along the entry.
UniProt P01137, residues 30-390: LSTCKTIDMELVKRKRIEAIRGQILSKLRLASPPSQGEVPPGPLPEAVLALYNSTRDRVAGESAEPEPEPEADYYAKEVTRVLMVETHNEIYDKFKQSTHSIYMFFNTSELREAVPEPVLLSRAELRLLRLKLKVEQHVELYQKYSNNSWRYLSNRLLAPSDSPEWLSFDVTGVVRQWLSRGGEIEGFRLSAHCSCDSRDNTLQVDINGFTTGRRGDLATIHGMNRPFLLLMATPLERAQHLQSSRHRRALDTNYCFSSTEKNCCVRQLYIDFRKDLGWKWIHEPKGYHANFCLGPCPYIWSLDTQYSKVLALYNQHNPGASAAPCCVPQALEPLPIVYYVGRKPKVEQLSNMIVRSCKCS
UniProt Q14392: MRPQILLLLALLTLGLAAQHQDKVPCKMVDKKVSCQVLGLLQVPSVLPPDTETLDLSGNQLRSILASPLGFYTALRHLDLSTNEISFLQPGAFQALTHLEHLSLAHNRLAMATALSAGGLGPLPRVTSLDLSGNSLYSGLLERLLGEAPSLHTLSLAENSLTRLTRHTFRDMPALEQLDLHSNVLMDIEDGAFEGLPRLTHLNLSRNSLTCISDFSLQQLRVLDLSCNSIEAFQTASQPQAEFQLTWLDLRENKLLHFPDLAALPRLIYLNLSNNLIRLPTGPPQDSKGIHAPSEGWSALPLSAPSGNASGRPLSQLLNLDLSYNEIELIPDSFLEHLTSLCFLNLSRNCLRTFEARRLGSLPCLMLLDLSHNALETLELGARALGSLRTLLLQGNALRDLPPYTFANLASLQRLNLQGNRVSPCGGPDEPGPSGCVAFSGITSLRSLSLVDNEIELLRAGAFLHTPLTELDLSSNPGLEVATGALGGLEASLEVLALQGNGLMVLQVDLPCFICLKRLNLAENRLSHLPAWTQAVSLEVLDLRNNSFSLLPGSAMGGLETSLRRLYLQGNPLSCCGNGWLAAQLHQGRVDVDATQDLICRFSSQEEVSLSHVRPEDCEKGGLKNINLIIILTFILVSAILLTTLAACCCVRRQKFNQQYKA

For one substance, binding results are on record in patent publication US20170189448A1.

These are yes or no findings as the source states them, for the method shown. Some results given as binding are weak or reduced against the parent protein; the word gives no strength.

As for “human GARP (glycoprotein-A repetitions predominant protein, LRRC32) on human adipose-derived stem cells (hASCs) (from UniProt Q14392 20-662) (receptor)”, the binding entry is given as “binds”.
